Patent US20070184126A1, “Water-soluble bound matter of proanthocyandin and composition containing the same” (TOYO SHINYAKU CO., LTD., priority 2004, published 2007)

Test: Conjugate formation determined by silica gel TLC against standards
Type: physicochemical
Design: key: + indicates that the spot was detected at the same position as the standard.; − indicates that the spot was not detected at the same position as the standard

NCC(=O)O [Comparative Example 3, glycine]
−: Standard Catechin (TLC spot) (spot at position of catechin standard (Rf value: 0.8), 10 μL sample) | Standard Dimer (TLC spot) (spot at position of proanthocyanidin B-2 (Rf value: 0.6)) | Standard Trimer (TLC spot) (spot at position of proanthocyanidin C-1 (Rf value: 0.4))
